Results published in PubChem BioAssay AID1347426 (Functional Genomics Laboratory (NCATS/FGL), 2020).
Among all 31,000 sequences or so, about 1,400 (4.5%) were called active.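 Rule for the calls: active = median seed-adjusted z-score above 1 or below -1; inactive = the rest.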 The list shows a part of the results.

Experiment: Novel Modifiers of Survival Motor Neuron (SMN) Protein: Gene Identification via Genome-wide siRNA Screen;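 note: luminescence tracks full-length SMN protein made from the SMN2 reporter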
Settings: HEK293T SMN2-luciferase reporter, siRNA knockdown, 72 h; actives lie on both sides
In short: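 Luciferase signal, proportional to full-length SMN made from an SMN2 cDNA reporter in stable HEK293T cells, was read 72 h after siRNA reverse transfection. Values were expressed as MAD scores after non-targeting-control normalization and log10 conversion; seed analysis flagged off-targets.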

Sequence	median seed-adjusted z-score
AGGAAGCUGCUAAAGCACATT against NXF5	inactive: -0.396
GGUUGAAGACAUCAUAUUATT against GABRQ	inactive: -0.54
CCAGUUCUCGAUUCUUAAUTT against ZNF92	inactive: -0.375
CAUUCUCAAUCUACCGGAATT against ARID4A	inactive: 0.601
CUCUCUUAUUUGUAUCCUATT against SPRR3	inactive: 0.682
UGUCUUUUACUGUAAGUUATT against REPIN1	inactive: -0.0614
CAACAUCUGAGGAUUCAUATT against ZNF713	inactive: -0.0652
CGAUGUUAGUGAGGACUAUTT against RPS6KL1	inactive: 0.0816
CCUUCACUAUUGCCCGCAATT against ABCD1	inactive: 0
CCCUGCUCACGUCCCUUUATT against HS3ST3A1	inactive: -0.133
GGCAUACAGUUCCGAGAAATT against AGL	inactive: -0.385
GCAUUACUACCGCAACGUATT against RAB33A	inactive: 0.307
CCAUUAUUGACUCACCCUATT against CSTF2T	inactive: 0.387
GCAAAUUUCUCACGCAUCATT against SERPINA6	inactive: 0.615
GGAAUAGUAACUACACGUATT against PLB1	inactive: -0.118
CGAAAGGUUUAGAAUCAGATT against FGD5	inactive: -0.0561
GCCGAGCUCUGCUAUUUGATT against ZHX3	inactive: -0.0916
GGAAUUAAGUUCAAACGAATT against DDX21	inactive: -0.251
CAAUCGAGGUUCCAUGUAUTT against PKP1	inactive: -0.99
CUGCUUCUCUAGUGAGUAATT against UROS	inactive: -0.248
GGGCGUCUGGACAUCUGUATT against ASPH	inactive: 0.0199
CGAUUACUGGUUCAGGAUATT against NDUFA10	inactive: -0.392
UGGUUUUACUGGAGCAUCATT against SLC15A3	inactive: 0

Nothing new here: entries from further up.
Sequence	median seed-adjusted z-score
GCAAAUUUCUCACGCAUCATT against SERPINA6	inactive: 0.615
GGAAUAGUAACUACACGUATT against PLB1	inactive: -0.118
CGAAAGGUUUAGAAUCAGATT against FGD5	inactive: -0.0561

Following part.

Sequence	median seed-adjusted z-score
CCCAGACUCUAGAUAGACATT against SULT1C3	inactive: -0.731
GAGCGACUUUGAUCACCAUTT against PANK2	inactive: 0.121
GCUGGAGCAGAUUACCUAATT against ZNF280C	inactive: 0.336
CUGCCGCAACAAUAAGAAATT against SNRPD2	inactive: -0.849
GAGAGUGUAAGAUCAGUAATT against ATRN	inactive: -0.28
GGAAUCUACUGGGAACAAATT against AASS	inactive: -0.626
AGAUCAAAGAGAUCCGCGATT against PCBP1	inactive: 0.124
CGACUAAAACAAUCUAAGATT against ATP6V1G3	inactive: 0.489
GGAUGGUACCACUACAAUATT against ERCC6	inactive: 0.0421
GCACGCUCUUCAUCGCCUATT against MC1R	inactive: -0.64
GCACAAAGCUGAUCCUGCATT against MYO7A	inactive: -0.0127
UCUACUAUGUCAUCCUGUATT against KCNE2	inactive: -0.666
GCUCGUUCUGAGUCAUAUATT against LRBA	inactive: 0.219
CAAGAGAUAUCAUCGAUUATT against ZRANB3	inactive: 0.0516
GAAUCGUCAAUGAUGAUCATT against DPYSL3	inactive: -0.226
GGCCGUGUACUGUAUCAUUTT against NUP93	active: 1.01
CGAUGAUGGCGCAAAAGAATT against ATOH1	inactive: -0.374
CCCUGAAUCUUAAUAGGCATT against BBS4	inactive: -0.0339
GGUCGAUCAUAUCCAUGUUTT against PDCD6	inactive: 0.325
GAUCAUGUCUGUCAUUCGATT against ATP2A2	inactive: 0.314
AGAUGAACCGUGCACUGGATT against PIGQ	inactive: 0.00996
GCACGAGCCUUUCUCCAGUTT against RNASE7	active: 1.07
UCAUCAAGCUGUUUACAGATT against GLP1R	inactive: 0

Another view of some results above:

| Sequence | median seed-adjusted z-score |
| --- | --- |
| CAUUCUCAAUCUACCGGAATT against ARID4A | inactive: 0.601 |
| CCCUGCUCACGUCCCUUUATT against HS3ST3A1 | inactive: -0.133 |

Following part

Sequence	median seed-adjusted z-score
GCAGGAGACUCAAAGAUUUTT against DDO	inactive: -0.202
CGCUUGGAGAGGCUACAAATT against FXR2	inactive: -0.133
GGAAUUUACAUGGUCUAUUTT against PHF6	inactive: -0.268
GCAUCAGAUUUUGUGGGAATT against SLC25A36	inactive: 0.134
CUAAUAGAAUGUCUCCAAATT against HMGN2	inactive: -0.038
CAACACCAGAAGAUCCAUATT against ZNF22	inactive: 0.47
GAGCGGCUCUUACAGGGAUTT against HOXB5	inactive: 0.061
CCACCCAUGUCAAAACCGATT against PTGS2	inactive: -0.21
GGAUCUCCUUGACAACCUUTT against TXN2	inactive: 0.87
GCAUGGUAUUUGAAGUUUUTT against SRPK1	inactive: 0.37
AGAGCAUGGUAAAUACCAATT against CDC37	inactive: 0
AGAACUCGCUGUAUACAAUTT against GP1BA	inactive: 0.0803
GGUUAUCGACGACAGCAGATT against AGAP3	inactive: 0.554
GCAUAGUAGGAUUAAGGCATT against RAPGEF2	inactive: -0.0715
GGACCUAUCUGGAAGAGGATT against ITPKC	inactive: 0.218
GGCUCCUGGUUACGCUAUATT against MOGAT2	inactive: -0.319
GGCUAUAUCGUCACAAUGATT against ABCA4	active: -1.09
GGUGUGAACUUGGUGAUCATT against DDX52	inactive: -0.2
CUCCACCCUUCAACCCAAATT against SGK2	inactive: 0.306
CGAGGAAUGGUAAUAGUGATT against ZFPM2	inactive: 0.087
CCCAGUUGCUCUAACGAAATT against DHRS7B	inactive: 0.294
GAUCGUCACAAGAAAGAUUTT against ZNF75A	inactive: 0.303
GAAACGAUGUUGUGGAGAATT against TNFRSF21	inactive: 0.225
